In PubChem BioAssay AID2685 (National Center for Advancing Translational Sciences (NCATS), 2010):
The other results are listed elsewhere or left out. The main result of the screen is listed elsewhere. These columns were measured beside it and carry no call. Compounds called inactive in the main read-out are mostly missing here. Words in brackets tell the shape of the fitted curve; partial curves, single points and poor fits give uncertain potencies.

Experiment: qHTS Assay for Lipid Storage Modulators in Drosophila S3 Cells;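 on cell number change: cells counted by Cell Tracker Red CMTPX staining in the red channel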
Settings: BODIPY lipid droplet fluorescence, 18-24 h; for cell number change: measured here: cell count max response, cells fed with added oleic acid
Summary of the method: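 Drosophila S3 cells got compounds at several concentrations plus oleic acid (400 uM solution). Laser-scanning cytometry with 488 nm excitation read lipid droplets at 500-530 nm and cells at 575-640 nm. Percent activity was relative to 20 uM Triacsin C.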

[1] = measured here: cell number channel AC50, cells fed with added oleic acid
[2] = measured here: lipid fluorescence (Fed channel) AC50, cells fed with added oleic acid

Row | SMILES | AC50 [1] | AC50 [2] | cell number change [%]
1 | CC(C)c1ccccc1NC(=S)NC(C)c1ccccc1 (centres undefined) | 6.51 µM [rising, single point] | 2.91 µM [falling, partial curve] | 
2 | Cc1c(O)ccc(C(=O)CN2CCN(Cc3ccccc3)CC2)c1O |  |  | 10.1
3 | Cc1ccc(CNC(=O)C2CCCN2S(=O)(=O)c2ccc(Cl)cc2)cc1 (centres undefined) |  | 29.1 µM [rising, single point] | 18.2
4 | CCOC(=O)c1cnc2c(Cl)cc(Cl)cc2c1NCCCN1CCOCC1 |  |  | 17.5
5 | COc1ccc(/C=C/C(=O)Nc2cccc(S(=O)(=O)NC3=NCCCCC3)c2)cc1OC |  | 4.11 µM [falling, full curve] | -9.22
6 | O=C(NCc1n[nH]c(=S)n1-c1ccc(Cl)c(Cl)c1)c1ccc(S(=O)(=O)N2CCCCC2)cc1 |  |  | 3.95
7 | O=C(c1ccc2nc[nH]c2c1)N1CCN(c2ncc(C(F)(F)F)cc2Cl)CC1 |  | 29.1 µM [falling, single point] | 
8 | Cc1csc(=O)n1CCC(=O)OCC(=O)c1ccc(Br)cc1 |  | 0.58 µM [rising, single point] | -25.1
9 | O=C(Nc1nncs1)c1cc2c(s1)CCC2 |  | 9.2 µM [falling, partial curve, poor fit] | 6.56
10 | CCCCn1c(N)c(N(CCOC)C(=O)COC(=O)COc2cc(C)ccc2Cl)c(=O)[nH]c1=O | 23.1 µM [rising, single point] |  | 50
11 | O=C(CC12CC3CC(CC(C3)C1)C2)NCO | 0.058 µM [falling, full curve] | 0.259 µM [falling, partial curve, poor fit] | -33
12 | O=C(c1cc([N+](=O)[O-])ccc1N1CCOCC1)N1CCN(c2ccccc2)CC1 |  |  | 19.9
13 | Cc1ccc(N2CCCCn3c2nc2c3c(=O)n(CC(=O)O)c(=O)n2C)cc1 |  | 20.6 µM [rising, single point] | 9.32
14 | Cc1cc(C(C)(C)C)cc(C)c1COC(=O)CN1C(=O)NC2(CCCC2)C1=O | 32.6 µM [falling, single point] | 23.1 µM [falling, single point] | -41.1
15 | CCNc1nc(=S)nc(NCc2ccccc2)[nH]1 |  |  | 47.1
16 | COc1cccc2c1OCC(CN1CCN(C3CCCCC3)C(CCO)C1)=C2 (centres undefined) |  |  | -14
17 | COc1ccc(/C=N/NC(=O)c2c(Br)cnn2C)c2ccccc12 | 0.291 µM [falling, full curve, poor fit] | 0.116 µM [falling, full curve] | -3.66
18 | COc1ccc(C(=O)Nc2cc(C)nn2-c2ccc(C)cc2)cc1 |  | 29.1 µM [rising, single point] | 13.3

Row | SMILES | AC50 [1] | AC50 [2] | cell number change [%]
19 | Cc1ccc(-c2cc(C(F)F)nc(S(C)(=O)=O)n2)cc1 | 1.16 µM [falling, full curve] | 1.3 µM [falling, full curve] | -60.2
20 | CSc1ccccc1NC(=O)CN(C1CCCCC1)S(C)(=O)=O | 25.9 µM [falling, partial curve] |  | -72
21 | COc1ccc2nc(C)cc(SCC(=O)Nc3c(C)cccc3C)c2c1 |  | 6.51 µM [rising, single point] | 15.9
22 | CCOC(=O)c1c(NC(=O)CSc2nnc(CNc3ccc(OC)cc3)n2C)sc(C)c1C |  | 0.092 µM [rising, full curve, poor fit] | 1.86
23 | CCN(CC)S(=O)(=O)c1cc(NC(=O)CNc2c(C)n(C)n(-c3ccccc3)c2=O)ccc1C |  | 0.00411 µM [falling, full curve, poor fit] | 7.98
24 | C=CCc1ccc(OCCCOc2ccc(C)cc2OC)c(OC)c1 | 29.1 µM [rising, single point] | 29.1 µM [rising, single point] | 82.3
25 | O=C1/C(=C/c2ccc(N3CCOCC3)o2)SC(=Nc2ccccc2)N1CCc1c[nH]c2ccccc12 | 3.26 µM [rising, single point] | 1.84 µM [falling, partial curve, poor fit] | -38.2
26 | COc1ccc(C2CC(=O)c3ccccc3O2)cc1 (centres undefined) |  | 5.17 µM [rising, partial curve] | -5.95
27 | O=C(CC1SC(N2CCOCC2)=NC1=O)Nc1cc([N+](=O)[O-])ccc1Cl (centres undefined) | 14.6 µM [falling, partial curve] |  | -121
28 | CCOC(=O)c1cccnc1SCC(=O)N(C)c1ccccc1 | 9.2 µM [rising, single point] | 18.4 µM [rising, partial curve] | 34.6
29 | N#CCN(C(=O)COC(=O)CCCNC(=O)c1ccc(Cl)cc1)c1ccccc1 |  | 7.31 µM [rising, partial curve] | 23.1
30 | CCCCCCCC(=O)N/N=C(\C)c1ccc(O)cc1O | 5.8 µM [falling, full curve] | 5.8 µM [falling, full curve] | -35.2
31 | Cc1cccc(C)c1Nc1c(-c2ccc(N3CCOCC3)cc2)nc2cnccn12 | 0.411 µM [rising, full curve] |  | 
32 | COc1ccccc1N1CCN(C(=O)CSc2nnc(NC(=O)C3CC3)s2)CC1 |  | 23.1 µM [rising, single point] | 8.68
33 | CN(C)C(=O)CSc1nc2ccccc2c(=O)[nH]1 |  | 0.58 µM [rising, single point] | 12.3
34 | CCOc1ccc(C(=O)NCC(=O)OCCCC(=O)c2ccc(F)cc2)cc1OCC | 16.4 µM [falling, single point] | 29.1 µM [falling, single point] | -34.6
35 | C#CCOCCOCCOCCNc1nc(N2CCN(C(=O)[C@H]([C@@H](C)CC)n3cc([C@@H](N)Cc4ccc(O)cc4)nn3)CC2)nc(N2CCN(C(=O)[C@H](Cc3cc4ccccc4[nH]3)n3cc([C@@H](N)CC(C)C)nn3)CC2)n1 | 18.4 µM [falling, partial curve] | 2.31 µM [falling, single point] | -49.5
36 | C=CCN1C(=Nc2cccnc2)SCC1(O)c1ccc(C)cc1 (centres undefined) |  | 8.2 µM [falling, partial curve, poor fit] | -22.6

An excerpt of these results, in markdown:

| Row | SMILES | AC50 [1] | AC50 [2] | cell number change [%] |
| --- | --- | --- | --- | --- |
| 33 | CN(C)C(=O)CSc1nc2ccccc2c(=O)[nH]1 |  | 0.58 µM [rising, single point] | 12.3 |
| 34 | CCOc1ccc(C(=O)NCC(=O)OCCCC(=O)c2ccc(F)cc2)cc1OCC | 16.4 µM [falling, single point] | 29.1 µM [falling, single point] | -34.6 |
| 35 | C#CCOCCOCCOCCNc1nc(N2CCN(C(=O)[C@H]([C@@H](C)CC)n3cc([C@@H](N)Cc4ccc(O)cc4)nn3)CC2)nc(N2CCN(C(=O)[C@H](Cc3cc4ccccc4[nH]3)n3cc([C@@H](N)CC(C)C)nn3)CC2)n1 | 18.4 µM [falling, partial curve] | 2.31 µM [falling, single point] | -49.5 |
